Data taken from patent publication US20050106258A1, “Pharmacology and manufacturing method of Bombyx moriL related bioproduct” (priority 2003, published 2005).
Where a name gives a salt, the structure may show the parent alone. At least one structure is not confirmed: it was looked up by name or label, or the drawing left a doubt.

Test system: normal males
Experiment: Arterial blood flow rate of corpus cavernosum penis of normal males (Doppler color ultrasound)
Assay type: in vivo
Details: Viagra 25 mg, n=11; before administration 9.55 ± 2.58; P < 0.05
Text: AIM: The physiological mechanism of penile erection expresses that NO is excreted in the cavernosum during sexual extraction, whose direct function is to activate GC, which catalyzes GPT to cGMP, so the smooth muscle of cavernosum is relax, and the inflowed blood volume is increased, then penis is erected. In this experiment, Doppler color-ultrasound instrument was used to observe the influence of product mainly consisting of bombyx moriL and viagra on the arterial blood flow rate of corpus cavernosum penis of normal males, to estimate the alternation of inflowed blood volume of cavernosum.
Tested Medicie: No.981005, light-blue capsule, 200 mg/capsule.
Sildenafilcitrate, viagra: light-blue rhombic table, 100 mg/tablet. The tablet was triturated to fine powder, and amylum was added. After adequate mixture, the powder was filled into 200 mg capsule. (The same specification as product mainly consisting of bombyx moriL).There was 50 mg sildenafilcitrate in every 8 capsules.
Subjects: 46 normal males, age 23-29, provided.
Methods: Double-blind, auto-control and mutual control design. […] Before administration, arterial blood flow of corpus cavernosum penis was estimated respectively by Doppler color ultrasound instrument (Acuson, American, 128×p/10 c),and blood pressure was also measured. […]

CCCc1nn(C)c2c(=O)[nH]c(-c3cc(S(=O)(=O)N4CCN(C)CC4)ccc3OCC)nc12 [Viagra, Sildenafil citrate]
MAX blood flow rate, change 2 h after administration, X ± SD: +2.45 ± 3.78 cm/s
